## Screening data, single-dose tests

Protein sequences, listed by entry. Tags and fused reporters are not part of them. Residues count along the entry.
UniProt I6X8D2, whole entry: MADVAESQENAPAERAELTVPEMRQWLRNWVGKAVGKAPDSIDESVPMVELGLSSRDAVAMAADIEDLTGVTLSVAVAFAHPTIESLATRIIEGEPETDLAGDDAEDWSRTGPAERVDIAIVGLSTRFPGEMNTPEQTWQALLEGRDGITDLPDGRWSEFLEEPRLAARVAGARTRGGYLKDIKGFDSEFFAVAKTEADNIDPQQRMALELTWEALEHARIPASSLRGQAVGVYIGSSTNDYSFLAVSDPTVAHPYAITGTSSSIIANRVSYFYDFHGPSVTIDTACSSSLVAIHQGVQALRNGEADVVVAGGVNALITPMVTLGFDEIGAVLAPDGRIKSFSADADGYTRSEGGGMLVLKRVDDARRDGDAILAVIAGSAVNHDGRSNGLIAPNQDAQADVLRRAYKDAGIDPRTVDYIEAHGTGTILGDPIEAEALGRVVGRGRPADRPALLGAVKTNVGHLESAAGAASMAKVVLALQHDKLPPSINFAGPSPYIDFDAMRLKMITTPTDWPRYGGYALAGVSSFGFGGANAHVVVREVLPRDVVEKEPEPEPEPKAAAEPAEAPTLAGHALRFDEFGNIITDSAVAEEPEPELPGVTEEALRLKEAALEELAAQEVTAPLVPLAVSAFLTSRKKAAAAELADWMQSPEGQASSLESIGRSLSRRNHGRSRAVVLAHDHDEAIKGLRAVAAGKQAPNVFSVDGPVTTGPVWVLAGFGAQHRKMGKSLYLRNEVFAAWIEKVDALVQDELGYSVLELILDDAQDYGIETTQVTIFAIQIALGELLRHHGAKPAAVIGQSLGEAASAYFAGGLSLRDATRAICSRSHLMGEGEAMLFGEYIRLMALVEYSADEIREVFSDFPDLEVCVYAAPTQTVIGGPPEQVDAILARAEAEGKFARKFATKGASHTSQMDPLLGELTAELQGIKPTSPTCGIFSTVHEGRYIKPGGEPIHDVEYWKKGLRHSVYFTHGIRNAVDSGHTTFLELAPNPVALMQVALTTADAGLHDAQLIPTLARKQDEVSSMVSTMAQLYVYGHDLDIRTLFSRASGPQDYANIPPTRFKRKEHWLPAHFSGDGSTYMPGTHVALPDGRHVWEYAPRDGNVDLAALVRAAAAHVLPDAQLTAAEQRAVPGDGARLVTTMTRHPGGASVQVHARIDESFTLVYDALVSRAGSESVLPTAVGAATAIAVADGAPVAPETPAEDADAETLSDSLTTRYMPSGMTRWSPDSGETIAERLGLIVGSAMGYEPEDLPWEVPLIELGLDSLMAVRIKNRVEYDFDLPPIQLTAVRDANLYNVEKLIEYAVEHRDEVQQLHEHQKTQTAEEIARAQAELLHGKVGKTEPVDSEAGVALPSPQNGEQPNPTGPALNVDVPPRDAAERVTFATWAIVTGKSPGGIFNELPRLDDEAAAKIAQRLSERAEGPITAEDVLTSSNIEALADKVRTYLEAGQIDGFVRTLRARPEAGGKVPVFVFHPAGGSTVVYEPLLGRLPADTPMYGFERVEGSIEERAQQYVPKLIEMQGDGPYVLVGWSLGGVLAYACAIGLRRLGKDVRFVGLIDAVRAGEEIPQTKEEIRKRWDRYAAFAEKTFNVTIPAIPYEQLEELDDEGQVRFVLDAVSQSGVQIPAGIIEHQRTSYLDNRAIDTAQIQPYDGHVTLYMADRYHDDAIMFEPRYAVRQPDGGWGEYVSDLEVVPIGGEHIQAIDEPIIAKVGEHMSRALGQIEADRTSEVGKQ
UniProt Q8IDJ8, 1-583: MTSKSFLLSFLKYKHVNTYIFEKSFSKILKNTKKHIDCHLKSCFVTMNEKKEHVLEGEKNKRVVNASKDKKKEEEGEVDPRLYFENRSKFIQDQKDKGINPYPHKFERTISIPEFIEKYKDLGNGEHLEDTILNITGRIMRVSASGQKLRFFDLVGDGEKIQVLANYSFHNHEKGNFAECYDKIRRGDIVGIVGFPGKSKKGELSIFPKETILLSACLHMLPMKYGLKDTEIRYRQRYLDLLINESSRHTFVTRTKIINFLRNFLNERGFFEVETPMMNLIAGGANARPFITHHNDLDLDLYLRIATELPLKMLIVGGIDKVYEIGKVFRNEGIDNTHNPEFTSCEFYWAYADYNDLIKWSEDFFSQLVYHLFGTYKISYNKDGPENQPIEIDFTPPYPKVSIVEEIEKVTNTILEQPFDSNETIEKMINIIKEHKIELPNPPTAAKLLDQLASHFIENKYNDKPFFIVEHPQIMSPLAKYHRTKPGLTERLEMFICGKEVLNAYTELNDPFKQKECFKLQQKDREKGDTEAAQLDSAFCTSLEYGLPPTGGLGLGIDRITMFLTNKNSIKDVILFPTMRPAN
UniProt P9WNZ1, whole entry: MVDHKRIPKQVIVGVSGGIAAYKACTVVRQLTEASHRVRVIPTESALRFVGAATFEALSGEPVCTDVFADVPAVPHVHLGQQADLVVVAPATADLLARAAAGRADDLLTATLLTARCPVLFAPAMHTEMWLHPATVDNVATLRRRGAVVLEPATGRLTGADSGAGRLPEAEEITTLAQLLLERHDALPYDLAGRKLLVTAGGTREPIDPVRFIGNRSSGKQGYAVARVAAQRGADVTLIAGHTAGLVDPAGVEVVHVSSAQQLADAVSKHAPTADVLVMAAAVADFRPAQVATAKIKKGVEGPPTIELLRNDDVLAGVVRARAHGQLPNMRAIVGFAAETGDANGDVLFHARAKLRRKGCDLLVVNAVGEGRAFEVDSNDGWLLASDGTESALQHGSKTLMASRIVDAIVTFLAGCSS

Source: ChEMBL document CHEMBL3988442, “University of Dundee, Small-Polar-MMV Screening Library” (2021).

A: 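Assay of Toxoplasma gondii numbers, read through their beta-galactosidase reporter with a colour substrate. Compounds at 10 µM. Higher reads as fewer parasites (inferred from which compounds were picked for retests). Size under these conditions: about 67,000 compounds, about 260 of them at 50% or above in at least one test.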
B: 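Enzyme assay of the thioesterase domain of polyketide synthase 13; the read-out is not stated. Target: Polyketide synthase Pks13, Mycobacterium tuberculosis (UniProt I6X8D2). Tested at 30 µM. The record gives no direction; the compounds picked for IC50 retests had high values, so higher reads as stronger inhibition. Of about 67,000 compounds tested this way, about 300 (0.46%) reached 50% or more in at least one test.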
C: 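Enzyme assay of the cytosolic lysyl-tRNA synthetase in 384-well plates, read by luminescence. Target: Lysine-tRNA ligase, Plasmodium falciparum 3D7 (UniProt Q8IDJ8). Concentration: 30 µM. Higher reads as stronger inhibition, judged from the few compounds that gave an IC50. About 69,000 compounds were tested under these conditions; 0.071% (about 49) showed 50% or more at least once.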
D: 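Enzyme assay of CoaBC with a phosphate dye (Biomol Green) read at 650 nm. Target: Coenzyme A biosynthesis protein CoaBC, Mycobacterium tuberculosis (UniProt P9WNZ1). Compounds at 30 µM. Higher reads as stronger inhibition, judged from the few compounds that gave an IC50. Most strong results did not repeat in a second test. Size under these conditions: about 67,000 compounds, about 40 of them at 50% or above in at least one test.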

Values are the deposited “Percent Effect”, in %. The record does not define 0% and 100%; most values in the screen are far below 50% and negative numbers occur (in some assays of this library far below -100). Compounds were drawn at random from those tested, without regard to their results.

CCC(C)(CC(=O)OC)NCc1c(C)noc1C (stereo not given) gave A: -1.908%; B: -15.94%; C: -0.3465%; D: 0.3681%. Result for CC1CCCN(S(=O)(=O)NCCCn2ccc3ccccc32)C1 (stereo not given) was A: -1.311%; B: -16.52%; C: 4.559%; D: 4.75%. Result for [H][C@@]12C[C@H](c3nc(C)no3)CN(S(C)(=O)=O)[C@]1([H])CCO2 was A: -13.18%. NC(=O)N1CCC2(CC1)CN(Cc1cccnc1)C(=O)CO2.O=C(O)C(F)(F)F read A: 7.92%. With O=S(=O)(c1cccnc1)N1CCCCC1CCN1CCOCC1 (stereo not given) the screen gave A: -40.01%; B: -6.62%; C: -9.013%; D: 3.384%. [H][C@@]12CCN(S(C)(=O)=O)CC[C@]1(C(=O)Nc1ccccc1)CCN2C(C)=O gave A: 47.46%. Result for COCc1nc(C(=O)N2CCCC2c2cc(C)on2)cs1 (stereo not given) was A: -39.38%; B: -24.28%; C: 0.222%; D: 5.98%. O=C(O)C(F)(F)F.O=C1CC(c2ccccc2)C2(CCN(Cc3nccs3)CC2)N1 (stereo not given) gave A: -14.5%.

For O=C(O)C(F)(F)F.O=C1CCCN1Cc1nnc2n1CCN(Cc1ccco1)CC2 the result was A: 8.371%. Result for [H][C@]12CCN(c3ncccc3Cl)C[C@]1(COC)CC[C@@H](N1CCOCC1)C2 was A: -4.473%. CCC1c2cccn2CCN1C(=O)c1ccc2nonc2c1 (stereo not given) gave A: -3.199%; B: 6.321%; C: -0.4808%; D: -8.017%. With O=C(O)C(F)(F)F.[H][C@]12CCN(c3cccc(C)n3)C[C@@]1([H])OCCN(C(=O)c1ccco1)C2 the screen gave A: 2.163%. Cc1nnc(N2CCCC3(CN(Cc4cccnc4)CCO3)C2)o1 (stereo not given) gave B: 3.505%; C: 1.452%; D: 3.576%. Result for CSc1ccc(NC(=O)Cn2cc(N)cn2)cc1 was A: -29.31%; B: 32.33%; C: 8.208%; D: 3.899%. Result for Cc1ccc(N2Cc3c(CN(C)C)nn(C)c3C2)nn1 was A: 9.701%; C: 5.035%; D: 0.2114%. O=C([C@@H]1CCCO1)N1CCOCC2(CCN(Cc3cccnc3)C2)C1 (stereo not given in full) gave A: -9.435%; B: -22.09%; C: 3.615%; D: 1.975%.

For reference, 2 entries once more:

* [H][C@@]12CCN(S(C)(=O)=O)CC[C@]1(C(=O)Nc1ccccc1)CCN2C(C)=O | A: 47.46%
* CSc1ccc(NC(=O)Cn2cc(N)cn2)cc1 | A: -29.31%; B: 32.33%; C: 8.208%; D: 3.899%